Experimental data: patent publication US20230374151A1 (GlaxoSmithKline, published 2023)

Sequences of proteins named here, by UniProt entry; tags and fusion partners are left off. A line that says so, or that is headed by a name, gives the form on record, which may keep a tag or linker. Residues count along the entry.
UniProt P43146, 26-1447, form in doubt: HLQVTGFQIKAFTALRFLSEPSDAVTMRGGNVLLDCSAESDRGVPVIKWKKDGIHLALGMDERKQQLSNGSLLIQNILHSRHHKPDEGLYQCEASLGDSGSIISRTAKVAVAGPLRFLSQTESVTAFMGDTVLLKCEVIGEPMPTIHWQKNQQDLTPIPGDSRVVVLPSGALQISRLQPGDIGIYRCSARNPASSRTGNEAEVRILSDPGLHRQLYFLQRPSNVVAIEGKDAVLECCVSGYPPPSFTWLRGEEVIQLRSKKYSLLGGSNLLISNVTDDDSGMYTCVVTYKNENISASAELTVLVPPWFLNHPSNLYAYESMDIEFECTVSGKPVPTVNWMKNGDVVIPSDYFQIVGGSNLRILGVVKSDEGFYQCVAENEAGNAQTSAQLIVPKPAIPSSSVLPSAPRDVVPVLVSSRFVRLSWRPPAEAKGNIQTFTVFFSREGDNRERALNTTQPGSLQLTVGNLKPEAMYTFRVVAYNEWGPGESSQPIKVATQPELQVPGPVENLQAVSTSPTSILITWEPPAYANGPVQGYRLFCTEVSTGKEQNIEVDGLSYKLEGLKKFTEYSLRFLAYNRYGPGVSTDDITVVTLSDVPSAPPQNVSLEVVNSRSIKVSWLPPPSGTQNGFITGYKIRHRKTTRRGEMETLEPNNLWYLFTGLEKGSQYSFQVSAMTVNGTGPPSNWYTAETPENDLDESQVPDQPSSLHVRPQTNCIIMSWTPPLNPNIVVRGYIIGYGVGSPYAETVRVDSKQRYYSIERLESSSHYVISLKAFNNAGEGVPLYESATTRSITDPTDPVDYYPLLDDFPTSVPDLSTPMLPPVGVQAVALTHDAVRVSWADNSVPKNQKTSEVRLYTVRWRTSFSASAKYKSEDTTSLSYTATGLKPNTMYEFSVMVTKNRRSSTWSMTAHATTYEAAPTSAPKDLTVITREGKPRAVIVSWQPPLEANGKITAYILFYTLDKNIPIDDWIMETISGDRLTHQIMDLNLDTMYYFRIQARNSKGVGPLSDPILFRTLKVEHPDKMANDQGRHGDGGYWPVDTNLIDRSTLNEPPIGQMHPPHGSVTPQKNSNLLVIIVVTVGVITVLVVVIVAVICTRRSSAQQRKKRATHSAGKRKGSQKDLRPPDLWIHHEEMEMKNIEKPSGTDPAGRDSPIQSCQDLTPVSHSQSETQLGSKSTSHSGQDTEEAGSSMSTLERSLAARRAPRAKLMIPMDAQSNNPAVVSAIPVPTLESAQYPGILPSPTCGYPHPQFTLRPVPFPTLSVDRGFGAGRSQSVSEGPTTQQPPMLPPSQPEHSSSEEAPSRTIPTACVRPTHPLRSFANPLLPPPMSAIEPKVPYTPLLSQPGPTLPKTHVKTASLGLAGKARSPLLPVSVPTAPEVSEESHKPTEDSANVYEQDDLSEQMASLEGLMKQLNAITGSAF

Biological target: DCC netrin 1 receptor (DCC) (human, UniProt P43146 26-1447)
Test: cell-based or functional assay

B1: TnMUC1 CAR MB053 (tagless, D16 lentiviral vector) on human T cells (other)
chain: DIVMTQSPDSLAVSLGERATINCKSSQSLLNSGDQKNYLTWYQQKPGQPPKLLIFWASTRESGVPDRFSGSGSGTDFTLTISSLQAEDVAVYYCQNDYSYPLTFGQGTKLEIKGGGGSGGGGSGGGGSGGGGSQVQLVQSGAEVKKPGSSVKVSCKASGYTFTDHAIHWVRQAPGQGLEWMGHFSPGNTDIKYNDKFKGRVTITADKSTSTAYMELSSLRSEDTAVYYCKTSTFFFDYWGQGTTVTVSSRTFVPVFLPAKPTTTPAPRPPTPAPTIASQPLSLRPEACRPAAGGAVHTRGLDFACDIYIWAPLAGTCGVLLLSLVITLYCNHRNKRGRKKLLYIFKQPFMRPVQTTQEEDGCSCRFPEEEEGGCELRVKFSRSADAPAYQQGQNQLYNELNLGRREEYDVLDKRRGRDPEMGGKPRRKNPQEGLYNELQKDKMAEAYSEIGMKGERRRGKGHDGLYQGLSTATKDTYDALHMQALPPR
IFN-γ production (MSD), 48 h co-culture with DCC expressing HEK cells, relative to co-culture with wild type Jurkat cells: ~2 times | IFN-γ production (MSD), co-culture with DCC transfected HEK cells, fold increase above untransduced T cells: 3240 fold
